Holding throughout (conditions): yeast three-hybrid, YBZ-1, SC-Leu-His + 0.5 mM 3-AT, 4 days
Assay [1] deals with T1, PUM1 PUF domain R4-CGC N971C + H972G + Q975C (Homo sapiens) (UniProt Q14671).
T1 sequence: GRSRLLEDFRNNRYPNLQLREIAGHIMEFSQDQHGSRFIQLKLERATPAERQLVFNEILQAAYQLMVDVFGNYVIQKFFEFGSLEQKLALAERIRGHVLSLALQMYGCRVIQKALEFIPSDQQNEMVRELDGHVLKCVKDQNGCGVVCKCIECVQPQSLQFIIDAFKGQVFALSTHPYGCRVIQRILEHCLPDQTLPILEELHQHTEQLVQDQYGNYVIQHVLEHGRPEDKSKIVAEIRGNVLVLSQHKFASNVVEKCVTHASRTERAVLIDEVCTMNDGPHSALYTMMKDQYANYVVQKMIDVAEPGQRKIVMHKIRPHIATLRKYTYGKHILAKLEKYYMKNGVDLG

For assay [2], the target named is T2, PUM1 PUF domain R4-DWV N971D + H972W + Q975V (Homo sapiens) (UniProt Q14671).
T2 sequence: T1 sequence with C144D, G145W, C148V

In assay [3] the target is T3, PUM1 PUF domain R4-LGM N971L + H972G + Q975M (UniProt Q14671).
T3 sequence: T1 sequence with C144L, C148M

Assay [4] deals with T4, PUM1 PUF domain R4-MLC N971M + H972L + Q975C (UniProt Q14671).
T4 sequence: T1 sequence with C144M, G145L

The target in assay [5] is T5, PUM1 PUF domain R4-MNA N971M + H972N + Q975A (UniProt Q14671).
T5 sequence: T1 sequence with C144M, G145N, C148A

Assay [6] deals with T6, PUM1 PUF domain R4-PYF N971P + H972Y + Q975F (UniProt Q14671).
T6 sequence: T1 sequence with C144P, G145Y, C148F

In assay [7] the target is T7, PUM1 PUF domain R4-RIF N971R + H972I + Q975F (UniProt Q14671).
T7 sequence: T1 sequence with C144R, G145I, C148F

For assay [8], the target named is T8, PUM1 PUF domain R4-RIY N971R + H972I + Q975Y (UniProt Q14671).
T8 sequence: T1 sequence with C144R, G145I, C148Y

Assay [9] addresses T9, PUM1 PUF domain R4-RLF N971R + H972L + Q975F (UniProt Q14671).
T9 sequence: T1 sequence with C144R, G145L, C148F

The target of assay [10] is T10, PUM1 PUF domain R4-RRY N971R + H972R + Q975Y (UniProt Q14671).
T10 sequence: T1 sequence with C144R, G145R, C148Y

Assay [11] has as its target T11, PUM1 PUF domain R4-RVY N971R + H972V + Q975Y (UniProt Q14671).
T11 sequence: T1 sequence with C144R, G145V, C148Y

The target in assay [12] is T12, PUM1 PUF domain R4-SIG N971S + H972I + Q975G (UniProt Q14671).
T12 sequence: T1 sequence with C144S, G145I, C148G

Assay [13] deals with T13, PUM1 PUF domain R4-SLY N971S + H972L + Q975Y (UniProt Q14671).
T13 sequence: T1 sequence with C144S, G145L, C148Y

The target in assay [14] is T14, PUM1 PUF domain R4-SMT N971S + H972M + Q975T (UniProt Q14671).
T14 sequence: T1 sequence with C144S, G145M, C148T

Assay [15] concerns the target T15, PUM1 PUF domain R4-SNG N971S + H972N + Q975G (Homo sapiens) (UniProt Q14671).
T15 sequence: T1 sequence with C144S, G145N, C148G

For assay [16], the target named is T16, PUM1 PUF domain R4-VGY N971V + H972G + Q975Y (UniProt Q14671).
T16 sequence: T1 sequence with C144V, C148Y

Assay [17] has as its target T17, PUM1 PUF domain R4-VLY N971V + H972L + Q975Y (UniProt Q14671).
T17 sequence: T1 sequence with C144V, G145L, C148Y

Assay [18] concerns the target T18, PUM1 PUF domain R4-VSL N971V + H972S + Q975L (UniProt Q14671).
T18 sequence: T1 sequence with C144V, G145S, C148L

Assay [19] addresses T19, PUM1 PUF domain R4-YLL N971Y + H972L + Q975L (UniProt Q14671).
T19 sequence: T1 sequence with C144Y, G145L, C148L

The target of assay [20] is T20, PUM1 PUF domain R4-YRC N971Y + H972R + Q975C (UniProt Q14671).
T20 sequence: T1 sequence with C144Y, G145R

Numbering of substitutions follows the chain as printed. This is one part of the list. For some assays here: At the low end of the ranking the order means little.

For the sequence “GGCUAGAACUAGUGGAUCCCCCGGCGCCCGGCGGCUCGAGCCCGGGUAAGUGUACAUAGUCUGCAUGCCGCCGGGCGCCAUGCCUGCAGGUCGACUCUAGAAAACAUG”, the binding signal (log2 enrichment (interaction score)) is -0.37 in assay [1]; 1.05 in [2]; less than -6.85 in assay [3]; less than -6.97 in [4]; less than -6.74 in assay [5]; less than -4.83 in [6]. Besides, the binding signal (log2 enrichment (interaction score)) in [7] is less than -5.01; in [8], -5.54; in [9] it was less than -7.23; in assay [10] it was less than -6.41; in assay [11], less than -5.75; in [12], less than -7.16. Further, the binding signal (log2 enrichment (interaction score)) in [13] was less than -7.4; in assay [14], less than -5.38; in assay [15], 1.2; in assay [16] it was less than -6.93; in assay [17], less than -7.45; in assay [18] it was less than -7.85. In addition, the binding signal (log2 enrichment (interaction score)) was less than -6.77 in assay [19] and less than -6.31 in assay [20].

The record behind these values is PMC8384837.
